The supplement of paper PMC4604168 (melanoma cell lines)
This is one part of the list. Repeats are few or missing, and single values can be far off.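 The apoptosis fraction was the count of cleaved-PARP antibody-stained nuclei relative to all DNA-stained nuclei, imaged in 1,536-well plates. Screening doses were set so most cells survived, and baseline and induced cleaved-PARP levels vary greatly across cell lines.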

How the values were obtained:
Experiment in all cases: cleaved PARP positive nuclei fraction relative to DMSO control; melanoma cells; higher = more apoptosis
Conditions in all cases: library dose: low library concentration; 72 h
501Mel = system: 501Mel
A101D = system: A101D
A2058 = system: A2058
C32 = system: C32
CBRC008 = system: CBRC008 (line from a melanoma biopsy)
CBRC014 = system: CBRC014 (line from a melanoma biopsy)
CBRC016 = system: CBRC016 (line from a melanoma biopsy)
CBRC017 = system: CBRC017 (line from a melanoma biopsy)
COLO792 = system: COLO792
COLO800 = system: COLO800
COLO829 = system: COLO829
G361 = system: G361
IPC-298 = system: IPC-298
IST-MEL1 = system: IST-MEL1
LB2518-MEL = system: LB2518-MEL
LOXIMVI = system: LOXIMVI

| Structure (SMILES) | cleaved PARP positive nuclei fraction (501Mel) | cleaved PARP positive nuclei fraction (A101D) | cleaved PARP positive nuclei fraction (A2058) | cleaved PARP positive nuclei fraction (C32) | cleaved PARP positive nuclei fraction (CBRC008) | cleaved PARP positive nuclei fraction (CBRC014) | cleaved PARP positive nuclei fraction (CBRC016) | cleaved PARP positive nuclei fraction (CBRC017) | cleaved PARP positive nuclei fraction (COLO792) | cleaved PARP positive nuclei fraction (COLO800) | cleaved PARP positive nuclei fraction (COLO829) | cleaved PARP positive nuclei fraction (G361) | cleaved PARP positive nuclei fraction (IPC-298) | cleaved PARP positive nuclei fraction (IST-MEL1) | cleaved PARP positive nuclei fraction (LB2518-MEL) | cleaved PARP positive nuclei fraction (LOXIMVI) |
| --- | --- | --- | --- | --- | --- | --- | --- | --- | --- | --- | --- | --- | --- | --- | --- | --- |
| Nc1ncn([C@H]2C[C@H](O)[C@@H](CO)O2)c(=O)n1 [decitabine] + O=C1NC(=O)/C(=C/c2ccc(-c3ccc(F)cc3O)o2)S1 [AS252424] (first compound 0.1 µM, partner dose 1 µM) | 94.7% | 8.95% | 53.7% | 79.8% | 56.4% | 86.4% | 31.6% | 144% | 98.4% | 52.2% | 93.5% | 102% | 70.8% | 164% | 79.1% | 66.5% |
| C[C@@H](Oc1cc(-c2cnn(C3CCNCC3)c2)cnc1N)c1c(Cl)ccc(F)c1Cl [Crizotinib] + COc1ccc2c(c1)CCC1C2CCC2(C)C(NCCCCCCN3C(=O)C=CC3=O)CCC12 [U73122] (first compound 0.2 µM, partner dose 0.4 µM) | 56.8% | 39% | 129% | 151% | 109% | 1050% | 116% | 81.1% | 141% | 38% | 49.8% | 75.8% | 63.3% | 112% | 73.2% | 30% |
| CS(=O)(=O)CCNCc1ccc(-c2ccc3ncnc(Nc4ccc(OCc5cccc(F)c5)c(Cl)c4)c3c2)o1 [lapatinib] + O=C(Nc1ccccc1)c1cc([N+](=O)[O-])ccc1Cl [GW9662] (first compound 0.8 µM, partner dose 2 µM) | 77.1% | 15% | 141% | 125% | 58.3% | 87% | 117% | 91.1% | 53% | 111% | 114% | 89% | 134% | 168% | 43.3% | 59% |
| Nc1nc(F)nc2c1ncn2[C@@H]1O[C@H](CO)[C@@H](O)[C@@H]1O [fludarabine] + COc1ccc2c(c1)CCC1C2CCC2(C)C(NCCCCCCN3C(=O)C=CC3=O)CCC12 [U73122] (first compound 0.2 µM, partner dose 0.4 µM) | 598% | 20.1% | 105% | 147% | 46.6% | 93.1% | 32.9% | 103% | 118% | 111% | 140% | 87.3% | 166% | 103% | 38.3% | 151% |
| C[C@@H](Oc1cc(-c2cnn(C3CCNCC3)c2)cnc1N)c1c(Cl)ccc(F)c1Cl [Crizotinib] + COc1cc2ncnc(Nc3ccc(Oc4ccccc4)cc3)c2cc1OC [SrcI1] (first compound 0.2 µM, partner dose 2 µM) | 57.3% | 28.8% | 128% | 124% | 34% | 87.8% | 48.1% | 63.7% | 101% | 104% | 99.5% | 99.5% | 53.1% | 179% | 57.8% | 69.2% |
| CCCS(=O)(=O)Nc1ccc(F)c(C(=O)c2c[nH]c3ncc(Cl)cc23)c1F + O=C1NC(=O)/C(=C/c2ccc(-c3ccc(F)cc3O)o2)S1 [AS252424] (first compound 0.08 µM, partner dose 1 µM) | 43.3% | 33.2% | 148% | 106% | 216% | 113% | 40% | 87.5% | 87.1% | 66.3% | 157% | 147% | 133% | 229% | 132% | 85.8% |
| C[C@@H](Oc1cc(-c2cnn(C3CCNCC3)c2)cnc1N)c1c(Cl)ccc(F)c1Cl [Crizotinib] + CCN(CC)CCCCNc1ncc2cc(-c3cc(OC)cc(OC)c3)c(NC(=O)NC(C)(C)C)nc2n1 [PD173074] (first compound 0.2 µM, partner dose 0.1 µM) | 70.6% | 158% | 141% | 42.5% | 148% | 108% | 41% | 64.3% | 85.9% | 178% | 119% | 75.3% | 144% | 122% | 70.1% | 80.8% |
| Cc1cc(Nc2cc(N3CCN(C)CC3)nc(/C=C/c3ccccc3)n2)n[nH]1 + COc1cc(N2CCC(N3CCN(C)CC3)CC2)ccc1Nc1ncc(Cl)c(Nc2ccccc2S(=O)(=O)C(C)C)n1 [NVP-TAE684] (first compound 0.04 µM, partner dose 0.08 µM) | 258% | 22.8% | 110% | 43.8% | 100% | 95.4% | 28.9% | 74.7% | 107% | 42.6% | 63.2% | 79.6% | 96% | 152% | 63.5% | 109% |
| CNC(=O)c1cc(Oc2ccc(NC(=O)Nc3ccc(Cl)c(C(F)(F)F)c3)cc2)ccn1 [sorafenib] + O=C1NC(=O)/C(=C/c2ccc(-c3ccc(F)cc3O)o2)S1 [AS252424] (first compound 0.4 µM, partner dose 1 µM) | 78.5% | 11.4% | 69.1% | 81.3% | 140% | 98.2% | 29.9% | 81.5% | 126% | 30.3% | 34.3% | 60.1% | 203% | 160% | 31.5% | 65.6% |
| CC(C)C[C@H](NC(=O)[C@H](Cc1ccccc1)NC(=O)c1cnccn1)B(O)O [Bortezomib] + CCCCCCCCCCCC1=C(O)C(=O)C=C(O)C1=O [Embelin] (first compound 0.001 µM, partner dose 1.2 µM) | 155% | 29.1% | 143% | 147% | 97.3% | 90.4% | 50% | 148% | 72.5% | 76.6% | 82.7% | 98.6% | 88.4% | 48.1% | 73.4% | 59.5% |
| CCCS(=O)(=O)Nc1ccc(F)c(C(=O)c2c[nH]c3ncc(Cl)cc23)c1F + O=C(O)C(=O)Nc1sc2c(c1C(=O)O)CCNC2 [TCS401] (first compound 0.08 µM, partner dose 1.66667 µM) | 59.2% | 70.5% | 87% | 47.7% | 78.4% | 93.3% | 43.8% | 85.1% | 88.6% | 138% | 148% | 122% | 132% | 110% | 65.9% | 186% |
| O=C(O)c1ccc2c(c1)nc(Nc1cccc(Cl)c1)c1ccncc12 + O=S(=O)(c1ccccc1)N(CC(F)(F)F)c1ccc(C(O)(C(F)(F)F)C(F)(F)F)cc1 [T0901317] (first compound 0.4 µM, partner dose 1.4 µM) | 247% | 10.3% | 290% | 378% | 37.6% | 151% | 71.2% | 149% | 98.2% | 83.7% | 53.2% | 147% | 141% | 52.7% | 90% | 211% |
| CO[C@H]1C[C@@H]2CC[C@@H](C)[C@@](O)(O2)C(=O)C(=O)N2CCCC[C@H]2C(=O)O[C@H]([C@H](C)C[C@@H]2CC[C@@H](OCCO)[C@H](OC)C2)CC(=O)[C@H](C)/C=C(\C)[C@@H](O)[C@@H](OC)C(=O)[C@H](C)C[C@H](C)/C=C/C=C/C=C/1C [everolimus] + c1cc(-c2cnn3cc(-c4ccc(OCCN5CCCCC5)cc4)cnc23)ccn1 [Dorsomorphin] (first compound 0.02 µM, partner dose 0.4 µM) | 697% | 49.7% | 259% | 86.5% | 47.9% | 92.1% | 53.8% | 74.6% | 31% | 116% | 93.7% | 351% | 114% | 44% | 81.6% | 91.7% |
| CCCS(=O)(=O)Nc1ccc(F)c(C(=O)c2c[nH]c3ncc(Cl)cc23)c1F + CCc1ccc(CCOc2ccc(CC3SC(=O)NC3=O)cc2)nc1 [pioglitazone] (first compound 0.08 µM, partner dose 2 µM) | 73.6% | 43.5% | 81.8% | 45.8% | 63.7% | 87.8% | 113% | 216% | 85.1% | 55.2% | 73.7% | 108% | 52% | 51.6% | 73.7% | 44.7% |
| Nc1nc(F)nc2c1ncn2[C@@H]1O[C@H](CO)[C@@H](O)[C@@H]1O [fludarabine] + Cn1cc(/C=C2\C(=O)Nc3cccnc32)c2ccccc21 [GW441756] (first compound 0.2 µM, partner dose 0.4 µM) | 746% | 30.9% | 9.82% | 152% | 32.2% | 82.9% | 129% | 94.6% | 145% | 46.8% | 174% | 87.8% | 118% | 43.3% | 73.6% | 132% |
| O=C(O)[C@@H]1[O][Sb](=[O])([O][Sb]2(=[O])[O][C@H]([C@H](O)CO)[C@H](O)[C@H](C(=O)O)[O]2)[O][C@H]([C@H](O)CO)[C@@H]1O (stereo partly drawn) [stibogluconate] + Oc1cc(-c2nc(-c3ccccc3)[nH]c2-c2ccncc2)ccc1Cl [L779450] (first compound 2 µM, partner dose 0.2 µM) | 92.2% | 30.5% | 161% | 202% | 63.6% | 108% | 28.8% | 92.5% | 55.6% | 39.6% | 116% | 111% | 50.4% | 211% | 168% | 82% |
| CO[C@H]1C[C@@H]2CC[C@@H](C)[C@@](O)(O2)C(=O)C(=O)N2CCCC[C@H]2C(=O)O[C@H]([C@H](C)C[C@@H]2CC[C@@H](OCCO)[C@H](OC)C2)CC(=O)[C@H](C)/C=C(\C)[C@@H](O)[C@@H](OC)C(=O)[C@H](C)C[C@H](C)/C=C/C=C/C=C/1C [everolimus] + N#Cc1c(O)c2c(-c3ccc(-c4ccccc4O)cc3)csc2[nH]c1=O [A769662] (first compound 0.02 µM, partner dose 2 µM) | 98.5% | 30% | 71.8% | 36% | 141% | 115% | 63.1% | 98.8% | 43.8% | 97.5% | 226% | 169% | 62.4% | 112% | 105% | 124% |
| CC(C)C[C@H](NC(=O)[C@H](Cc1ccccc1)NC(=O)c1cnccn1)B(O)O [Bortezomib] + COc1ccc(-c2ccc3c(N4CCOCC4)nc(N4C[C@@H](C)O[C@@H](C)C4)nc3n2)cc1CO [KU0063794] (first compound 0.001 µM, partner dose 0.02 µM) | 509% | 94.7% | 154% | 58.2% | 670% | 215% | 454% | 372% | 42.1% | 49.9% | 376% | 2360% | 41.1% | 74.9% | 601% | 167% |

Complete entries from above. Order of values: cleaved PARP positive nuclei fraction (501Mel) | cleaved PARP positive nuclei fraction (A101D) | cleaved PARP positive nuclei fraction (A2058) | cleaved PARP positive nuclei fraction (C32) | cleaved PARP positive nuclei fraction (CBRC008) | cleaved PARP positive nuclei fraction (CBRC014) | cleaved PARP positive nuclei fraction (CBRC016) | cleaved PARP positive nuclei fraction (CBRC017) | cleaved PARP positive nuclei fraction (COLO792) | cleaved PARP positive nuclei fraction (COLO800) | cleaved PARP positive nuclei fraction (COLO829) | cleaved PARP positive nuclei fraction (G361) | cleaved PARP positive nuclei fraction (IPC-298) | cleaved PARP positive nuclei fraction (IST-MEL1) | cleaved PARP positive nuclei fraction (LB2518-MEL) | cleaved PARP positive nuclei fraction (LOXIMVI)
CC(C)C[C@H](NC(=O)[C@H](Cc1ccccc1)NC(=O)c1cnccn1)B(O)O [Bortezomib] + CCCCCCCCCCCC1=C(O)C(=O)C=C(O)C1=O [Embelin] (first compound 0.001 µM, partner dose 1.2 µM) reads 155% | 29.1% | 143% | 147% | 97.3% | 90.4% | 50% | 148% | 72.5% | 76.6% | 82.7% | 98.6% | 88.4% | 48.1% | 73.4% | 59.5%
C[C@@H](Oc1cc(-c2cnn(C3CCNCC3)c2)cnc1N)c1c(Cl)ccc(F)c1Cl [Crizotinib] + COc1cc2ncnc(Nc3ccc(Oc4ccccc4)cc3)c2cc1OC [SrcI1] (first compound 0.2 µM, partner dose 2 µM) reads 57.3% | 28.8% | 128% | 124% | 34% | 87.8% | 48.1% | 63.7% | 101% | 104% | 99.5% | 99.5% | 53.1% | 179% | 57.8% | 69.2%
